Experimental findings from article doi:10.1101/2022.02.08.479616 are described below.

By UniProt entry, the sequences of proteins in these tests, tags left out. Where a name states a change or a piece, a line headed by the entry shows the natural chain unless it says otherwise. Residues count along the entry.
UniProt Q9SJE1, residues 50-760: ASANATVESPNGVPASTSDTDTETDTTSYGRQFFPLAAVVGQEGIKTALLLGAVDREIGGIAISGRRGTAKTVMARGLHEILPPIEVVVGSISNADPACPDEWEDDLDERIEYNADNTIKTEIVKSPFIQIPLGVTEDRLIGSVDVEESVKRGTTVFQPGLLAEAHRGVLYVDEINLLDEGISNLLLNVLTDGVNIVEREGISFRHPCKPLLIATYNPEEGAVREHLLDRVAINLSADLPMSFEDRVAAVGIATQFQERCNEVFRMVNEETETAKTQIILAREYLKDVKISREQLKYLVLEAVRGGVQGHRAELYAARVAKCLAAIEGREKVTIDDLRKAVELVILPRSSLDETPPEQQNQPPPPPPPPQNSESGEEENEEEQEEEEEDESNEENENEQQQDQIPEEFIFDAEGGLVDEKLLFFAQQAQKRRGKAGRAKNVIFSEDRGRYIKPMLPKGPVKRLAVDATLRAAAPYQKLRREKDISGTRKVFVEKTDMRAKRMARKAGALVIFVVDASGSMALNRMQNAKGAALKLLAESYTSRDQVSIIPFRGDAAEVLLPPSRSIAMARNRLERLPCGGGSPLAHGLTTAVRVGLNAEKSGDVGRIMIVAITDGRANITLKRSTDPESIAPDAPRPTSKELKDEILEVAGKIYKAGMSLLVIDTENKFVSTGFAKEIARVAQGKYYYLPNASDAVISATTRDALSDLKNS

Assay [1] concerns the target T1, ORANGE (OR), Cub fusion for split-ubiquitin Y2H (Arabidopsis thaliana) (UniProt Q9FKF4).
T1 sequence: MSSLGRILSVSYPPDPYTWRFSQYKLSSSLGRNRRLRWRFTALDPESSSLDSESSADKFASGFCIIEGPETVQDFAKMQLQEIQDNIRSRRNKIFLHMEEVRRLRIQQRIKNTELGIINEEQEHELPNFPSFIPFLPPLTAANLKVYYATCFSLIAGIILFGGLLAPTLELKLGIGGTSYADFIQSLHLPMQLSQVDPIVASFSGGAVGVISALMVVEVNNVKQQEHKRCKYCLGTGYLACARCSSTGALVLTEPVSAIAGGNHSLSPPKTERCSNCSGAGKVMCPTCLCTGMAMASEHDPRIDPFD
Nature of the assay: two-hybrid.

The target in assay [2] is T2, OR-Like (ORL), Cub fusion for split-ubiquitin Y2H (Arabidopsis thaliana) (UniProt Q8VYD8).
T2 sequence: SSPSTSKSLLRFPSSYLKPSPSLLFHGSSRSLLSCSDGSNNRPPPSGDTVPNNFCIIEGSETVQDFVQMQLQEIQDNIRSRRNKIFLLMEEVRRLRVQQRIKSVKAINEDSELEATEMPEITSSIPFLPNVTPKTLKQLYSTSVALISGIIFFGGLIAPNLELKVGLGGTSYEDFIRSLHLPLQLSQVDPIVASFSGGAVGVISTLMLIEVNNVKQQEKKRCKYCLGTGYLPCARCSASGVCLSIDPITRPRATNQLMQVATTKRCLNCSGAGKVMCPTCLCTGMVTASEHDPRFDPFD
Nature of the assay: two-hybrid.

Assay [3] concerns the target T3, ORANGE (OR), split-YFP fusion for BiFC (Arabidopsis thaliana) (UniProt Q9FKF4).
T3 sequence: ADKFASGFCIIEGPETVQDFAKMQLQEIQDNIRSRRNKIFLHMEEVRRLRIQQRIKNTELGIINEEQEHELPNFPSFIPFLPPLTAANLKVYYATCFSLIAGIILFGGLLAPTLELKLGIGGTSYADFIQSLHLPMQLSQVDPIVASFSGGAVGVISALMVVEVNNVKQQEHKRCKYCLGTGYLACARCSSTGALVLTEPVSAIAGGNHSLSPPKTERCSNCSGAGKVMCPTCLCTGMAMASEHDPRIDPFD
Nature of the assay: split reporter.

Assay [4] addresses T4, OR-Like (ORL), split-YFP fusion for BiFC (Arabidopsis thaliana) (UniProt Q8VYD8).
T4 sequence: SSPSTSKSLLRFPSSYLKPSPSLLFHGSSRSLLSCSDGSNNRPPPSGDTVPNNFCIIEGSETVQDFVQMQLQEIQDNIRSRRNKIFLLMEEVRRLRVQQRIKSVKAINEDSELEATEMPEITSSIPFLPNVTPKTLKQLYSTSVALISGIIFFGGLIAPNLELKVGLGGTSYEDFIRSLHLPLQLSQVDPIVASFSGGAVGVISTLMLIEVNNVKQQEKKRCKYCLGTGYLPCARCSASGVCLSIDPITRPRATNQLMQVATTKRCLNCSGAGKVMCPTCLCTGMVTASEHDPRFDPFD
Nature of the assay: split reporter.

These are yes or no findings as the source states them, for the method shown. For some of these results: In cells and extracts the contact can be indirect. Sequences can lack the tags named with a protein.

As for “Mg-chelatase subunit CHLD, Nub fusion for split-ubiquitin Y2H (from UniProt Q9SJE1 50-760)”, the binding entry in assay [1] and in assay [2] was “no binding” each time.
As for “Mg-chelatase subunit CHLD, split-YFP fusion for BiFC (from UniProt Q9SJE1 50-760)”, the binding entry in assay [3] and in assay [4] was “no binding” throughout.

B1: Pchlide oxidoreductase B (PORB), Nub fusion for split-ubiquitin Y2H (protein, UniProt P21218 67-401)
chain: QTAATSSPTVTKSVDGKKTLRKGNVVVTGASSGLGLATAKALAETGKWNVIMACRDFLKAERAAKSVGMPKDSYTVMHLDLASLDSVRQFVDNFRRTETPLDVLVCNAAVYFPTAKEPTYSAEGFELSVATNHLGHFLLARLLLDDLKKSDYPSKRLIIVGSITGNTNTLAGNVPPKANLGDLRGLAGGLNGLNSSAMIDGGDFDGAKAYKDSKVCNMLTMQEFHRRFHEETGVTFASLYPGCIASTGLFREHIPLFRALFPPFQKYITKGYVSETESGKRLAQVVSDPSLTKSGVYWSWNNASASFENQLSEEASDVEKARKVWEISEKLVGLA
Take B1: the binding result in assay [1] and in assay [2] was “no binding” throughout.

B2: MgProtoIX methyltransferase (CHLM), Nub fusion for split-ubiquitin Y2H (protein, UniProt Q9SW18 40-312)
chain: AASVTDLAGVDSTTIAVLGGGSVAALAAMVSLTDPERRRKLQAEEVGGGDKEVVREYFNSTGFERWRKIYGETDEVNRVQKDIRLGHAKTVENTMLMLTEDRSLAGVTVCDAGCGTGLLSIPLAKEGAIVSASDISAAMVAEAEMKAKAQLPSENLPKFEVNDLESLTGKYDTVVCLDVLIHYPQNKADGMIAHLASLAEKRVILSFAPKTFYYDILKRIGELFPGPSKATRAYLHSEADVERALGKVGWKISKRGLTTTQFYFSRLIEAVPM
B2: the binding entry in assay [1] and in assay [2] was “no binding” each time.

B3: MgPMME cyclase 1 (CRD1), Nub fusion for split-ubiquitin Y2H (protein, UniProt Q9M591 37-409)
chain: MSASSSPPPPTTATSKSKKGTKKEIQESLLTPRFYTTDFEEMEQLFNTEINKNLNEAEFEALLQEFKTDYNQTHFVRNKEFKEAADKLQGPLRQIFVEFLERSCTAEFSGFLLYKELGRRLKKTNPVVAEIFSLMSRDEARHAGFLNKGLSDFNLALDLGFLTKARKYTFFKPKFIFYATYLSEKIGYWRYITIYRHLKENPEFQCYPIFKYFENWCQDENRHGDFFSALMKAQPQFLNDWQAKLWSRFFCLSVYVTMYLNDCQRTNFYEGIGLNTKEFDMHVIIETNRTTARIFPAVLDVENPEFKRKLDRMVVSYEKLLAIGETDDASFIKTLKRIPLVTSLASEILAAYLMPPVESGSVDFAEFEPNLVY
As to B3, the binding result in assay [1] and in assay [2] was “no binding” each time.

B4: GENOMES UNCOUPLED 4 (GUN4), Nub fusion for split-ubiquitin Y2H (protein, UniProt Q9LX31 70-265)
chain: ASATTAETATIFDVLENHLVNQNFRQADEETRRLLIQISGEAAVKRGYVFFSEVKTISPEDLQAIDNLWIKHSDGRFGYSVQRKIWLKVKKDFTRFFVKVEWMKLLDTEVVQYNYRAFPDEFKWELNDETPLGHLPLTNALRGTQLLKCVLSHPAFATADDNSGETEDELNRGVAVAKEQAGVGADKRVFKTNYSF
In the case of B4, the binding result in assay [1] and in assay [2] was “no binding” throughout.

B5: Mg-chelatase catalytic subunit CHLH (GENOMES UNCOUPLED 5), split-YFP fusion for BiFC (protein, UniProt Q9FNB0 50-1381)
chain: AVSGNGLFTQTNPEVRRIVPIKRDNVPTVKIVYVVLEAQYQSSLSEAVQSLNKTSRFASYEVVGYLVEELRDKNTYNNFCEDLKDANIFIGSLIFVEELAIKVKDAVEKERDRMDAVLVFPSMPEVMRLNKLGSFSMSQLGQSKSPFFQLFKRKKQGSAGFADSMLKLVRTLPKVLKYLPSDKAQDARLYILSLQFWLGGSPDNLQNFVKMISGSYVPALKGVKIEYSDPVLFLDTGIWHPLAPTMYDDVKEYWNWYDTRRDTNDSLKRKDATVVGLVLQRSHIVTGDDSHYVAVIMELEARGAKVVPIFAGGLDFSGPVEKYFVDPVSKQPIVNSAVSLTGFALVGGPARQDHPRAIEALKKLDVPYLVAVPLVFQTTEEWLNSTLGLHPIQVALQVALPELDGAMEPIVFAGRDPRTGKSHALHKRVEQLCIRAIRWGELKRKTKAEKKLAITVFSFPPDKGNVGTAAYLNVFASIFSVLRDLKRDGYNVEGLPENAETLIEEIIHDKEAQFSSPNLNVAYKMGVREYQDLTPYANALEENWGKPPGNLNSDGENLLVYGKAYGNVFIGVQPTFGYEGDPMRLLFSKSASPHHGFAAYYSYVEKIFKADAVLHFGTHGSLEFMPGKQVGMSDACFPDSLIGNIPNVYYYAANNPSEATIAKRRSYANTISYLTPPAENAGLYKGLKQLSELISSYQSLKDTGRGPQIVSSIISTAKQCNLDKDVDLPDEGLELSPKDRDSVVGKVYSKIMEIESRLLPCGLHVIGEPPSAMEAVATLVNIAALDRPEDEISALPSILAECVGREIEDVYRGSDKGILSDVELLKEITDASRGAVSAFVEKTTNSKGQVVDVSDKLTSLLGFGINEPWVEYLSNTKFYRANRDKLRTVFGFLGECLKLVVMDNELGSLMQALEGKYVEPGPGGDPIRNPKVLPTGKNIHALDPQAIPTTAAMASAKIVVERLVERQKLENEGKYPETIALVLWGTDNIKTYGESLGQVLWMIGVRPIADTFGRVNRVEPVSLEELGRPRIDVVVNCSGVFRDLFINQMNLLDRAIKMVAELDEPVEQNFVRKHALEQAEALGIDIREAATRVFSNASGSYSANISLAVENSSWNDEKQLQDMYLSRKSFAFDSDAPGAGMAEKKQVFEMALSTAEVTFQNLDSSEISLTDVSHYFDSDPTNLVQSLRKDKKKPSSYIADTTTANAQVRTLSETVRLDARTKLLNPKWYEGMMSSGYEGVREIEKRLSNTVGWSATSGQVDNWVYEEANSTFIQDEEMLNRLMNTNPNSFRKMLQTFLEANGRGYWDTSAENIEKLKELYSQVEDKIEGIDR
As to B5, the binding result in assay [3] and in assay [4] was “no binding” in each case.

B6: Mg-chelatase catalytic subunit CHLH (GENOMES UNCOUPLED 5), Nub fusion for split-ubiquitin Y2H (protein, UniProt Q9FNB0 50-1381)
chain: AVSGNGLFTQTNPEVRRIVPIKRDNVPTVKIVYVVLEAQYQSSLSEAVQSLNKTSRFASYEVVGYLVEELRDKNTYNNFCEDLKDANIFIGSLIFVEELAIKVKDAVEKERDRMDAVLVFPSMPEVMRLNKLGSFSMSQLGQSKSPFFQLFKRKKQGSAGFADSMLKLVRTLPKVLKYLPSDKAQDARLYILSLQFWLGGSPDNLQNFVKMISGSYVPALKGVKIEYSDPVLFLDTGIWHPLAPTMYDDVKEYWNWYDTRRDTNDSLKRKDATVVGLVLQRSHIVTGDDSHYVAVIMELEARGAKVVPIFAGGLDFSGPVEKYFVDPVSKQPIVNSAVSLTGFALVGGPARQDHPRAIEALKKLDVPYLVAVPLVFQTTEEWLNSTLGLHPIQVALQVALPELDGAMEPIVFAGRDPRTGKSHALHKRVEQLCIRAIRWGELKRKTKAEKKLAITVFSFPPDKGNVGTAAYLNVFASIFSVLRDLKRDGYNVEGLPENAETLIEEIIHDKEAQFSSPNLNVAYKMGVREYQDLTPYANALEENWGKPPGNLNSDGENLLVYGKAYGNVFIGVQPTFGYEGDPMRLLFSKSASPHHGFAAYYSYVEKIFKADAVLHFGTHGSLEFMPGKQVGMSDACFPDSLIGNIPNVYYYAANNPSEATIAKRRSYANTISYLTPPAENAGLYKGLKQLSELISSYQSLKDTGRGPQIVSSIISTAKQCNLDKDVDLPDEGLELSPKDRDSVVGKVYSKIMEIESRLLPCGLHVIGEPPSAMEAVATLVNIAALDRPEDEISALPSILAECVGREIEDVYRGSDKGILSDVELLKEITDASRGAVSAFVEKTTNSKGQVVDVSDKLTSLLGFGINEPWVEYLSNTKFYRANRDKLRTVFGFLGECLKLVVMDNELGSLMQALEGKYVEPGPGGDPIRNPKVLPTGKNIHALDPQAIPTTAAMASAKIVVERLVERQKLENEGKYPETIALVLWGTDNIKTYGESLGQVLWMIGVRPIADTFGRVNRVEPVSLEELGRPRIDVVVNCSGVFRDLFINQMNLLDRAIKMVAELDEPVEQNFVRKHALEQAEALGIDIREAATRVFSNASGSYSANISLAVENSSWNDEKQLQDMYLSRKSFAFDSDAPGAGMAEKKQVFEMALSTAEVTFQNLDSSEISLTDVSHYFDSDPTNLVQSLRKDKKKPSSYIADTTTANAQVRTLSETVRLDARTKLLNPKWYEGMMSSGYEGVREIEKRLSNTVGWSATSGQVDNWVYEEANSTFIQDEEMLNRLMNTNPNSFRKMLQTFLEANGRGYWDTSAENIEKLKELYSQVEDKIEGIDR
As to B6, the binding entry in assay [1] and in assay [2] was “no binding” in each case.
